Assay results: publication PMC8327419
Results are given in words; binding and its absence hold for the method and conditions named. In cells and extracts the contact can be indirect. Some entries that bind do so weakly or less than the wild type.

Sequences of proteins named here, by UniProt entry; tags and fusion partners are left off.
UniProt Q9P286: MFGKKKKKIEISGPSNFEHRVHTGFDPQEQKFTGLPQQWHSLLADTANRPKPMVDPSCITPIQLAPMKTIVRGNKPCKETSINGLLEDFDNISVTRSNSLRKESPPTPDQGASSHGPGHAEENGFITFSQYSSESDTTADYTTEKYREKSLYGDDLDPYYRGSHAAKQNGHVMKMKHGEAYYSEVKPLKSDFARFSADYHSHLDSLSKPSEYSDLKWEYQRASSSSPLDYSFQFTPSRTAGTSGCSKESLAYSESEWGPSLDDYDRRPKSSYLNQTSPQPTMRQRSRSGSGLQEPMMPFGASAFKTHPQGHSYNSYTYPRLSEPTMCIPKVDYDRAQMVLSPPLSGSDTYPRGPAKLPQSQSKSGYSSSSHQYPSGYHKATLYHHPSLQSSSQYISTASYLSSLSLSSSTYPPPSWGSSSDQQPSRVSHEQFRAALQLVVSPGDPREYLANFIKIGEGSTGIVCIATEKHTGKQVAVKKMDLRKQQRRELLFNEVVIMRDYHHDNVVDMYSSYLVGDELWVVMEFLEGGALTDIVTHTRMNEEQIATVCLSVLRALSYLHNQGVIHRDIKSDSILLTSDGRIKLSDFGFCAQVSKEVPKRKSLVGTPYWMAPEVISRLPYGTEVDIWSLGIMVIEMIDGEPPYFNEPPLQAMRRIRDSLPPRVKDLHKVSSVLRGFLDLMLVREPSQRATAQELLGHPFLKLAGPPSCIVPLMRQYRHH
UniProt P35222: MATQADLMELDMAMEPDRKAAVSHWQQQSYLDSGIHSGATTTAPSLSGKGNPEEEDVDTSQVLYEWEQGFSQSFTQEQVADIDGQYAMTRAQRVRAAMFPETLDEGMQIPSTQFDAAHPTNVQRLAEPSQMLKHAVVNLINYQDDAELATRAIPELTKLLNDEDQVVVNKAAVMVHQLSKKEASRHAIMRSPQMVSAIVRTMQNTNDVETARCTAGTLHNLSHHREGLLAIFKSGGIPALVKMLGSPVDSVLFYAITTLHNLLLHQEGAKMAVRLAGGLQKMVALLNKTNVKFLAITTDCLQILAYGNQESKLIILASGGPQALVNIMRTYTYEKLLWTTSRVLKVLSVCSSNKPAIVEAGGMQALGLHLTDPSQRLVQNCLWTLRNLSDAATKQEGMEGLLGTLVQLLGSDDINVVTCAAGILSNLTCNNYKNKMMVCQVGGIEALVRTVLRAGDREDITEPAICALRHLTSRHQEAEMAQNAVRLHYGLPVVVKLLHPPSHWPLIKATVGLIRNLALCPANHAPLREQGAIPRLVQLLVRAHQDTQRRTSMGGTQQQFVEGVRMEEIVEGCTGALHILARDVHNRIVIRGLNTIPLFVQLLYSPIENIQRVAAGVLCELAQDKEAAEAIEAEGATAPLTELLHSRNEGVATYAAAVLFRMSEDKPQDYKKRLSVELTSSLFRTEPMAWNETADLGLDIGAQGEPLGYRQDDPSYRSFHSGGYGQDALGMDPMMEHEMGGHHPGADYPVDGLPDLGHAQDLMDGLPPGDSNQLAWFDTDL

Target: p21-Activated kinases 5 (PAK5) (human (endogenous in Hep3B)) (UniProt Q9P286)
Experiment: co-IP; endogenous proteins; Hep3B and sorafenib-resistant Hep3B-SR cells lysed in IP lysis buffer with protease/phosphatase inhibitors; anti-PAK5 or mouse IgG overnight at 4 °C, Protein A/G beads, Western Blot

## β-catenin (from UniProt P35222 1-781)
  binding: binds
